The source of these data is PubChem BioAssay AID493014 (National Center for Advancing Translational Sciences (NCATS), 2011).

This is one part of the list. These are further read-outs of the screen, such as a control signal, another cell line or another target. No call is given for them. Compounds called inactive in the main read-out are mostly missing here. Potencies come from curve fits of mixed quality, noted in brackets.

This assay is described as follows: qHTS Assay to Find Inhibitors of Chronic Active B-Cell Receptor Signaling. Particulars: ABC-DLBCL IkBa-CBG/CBR reporter, luminescence ratio (green luciferase fused to IkBa over red control in TMD8 lymphoma cells), 4 h. In a few lines: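 Concentration-response series (up to 46 uM) were applied to TMD8 dual-reporter cells for 4 h at 37C with doxycycline. Green/red ratio, after filter-overlap correction, defined %Activity; red signal alone was normalised to basal cells and zero luminescence.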

Where [1] appears, read: measured here: CBR red luminescence, cell number.
Where [2] appears, read: measured here: IkBa-CBG green luminescence.

Consider `Brc1ccccc1/C=N/Nc1ccc2ccccc2n1`, for which, under setting [1], the AC50 was 0.103 µM [falling, full curve]. Same read-out and setting: in the case of `Cc1cc(NC(=O)c2ccccc2)ncc1NC(=O)c1ccco1` it was 29.1 µM [falling, single point]. Same read-out and setting: then `Nc1ccc(C(=O)OCc2nc3ccccc3s2)cc1`, with 3.98 µM [rising, full curve]. Same read-out and setting: in the case of `CC(=O)NCCc1nc2ccccc2n1CCOc1ccccc1` it was 0.562 µM [rising, partial curve, poor fit]. Consider `C[C@@H](C[C@@H](O)[C@H](O)C(C)(C)O)[C@@H]1CC[C@]2(C)C3=CC[C@H]4C(C)(C)C(=O)CC[C@]4(C)[C@H]3CC[C@@]12C`, for which the AC50 under setting [1] was 18.4 µM [rising, single point].

With `Cc1ccc(C2(c3ccc(C)cc3)CC2C(=O)Nc2ccc([N+](=O)[O-])cc2O)cc1` (stereo not given), the AC50 under setting [1] is 1.58 µM [falling, partial curve, poor fit]. Turning to `Cc1ccc(Cn2c(C)c3cnn(CC(=O)NCc4ccccn4)c(=O)c3c2C)cc1`, the AC50 under setting [1] is 8.91 µM [falling, partial curve].

Regarding `Cc1nc2oc3ccccc3c(=O)c2c(=O)n1Cc1ccccc1`, the AC50 under setting [1] was 0.184 µM [falling, full curve, poor fit]. On the same count and under the same terms, in the case of `O=C(C1CC1)N1CCc2cc(Br)cc(S(=O)(=O)N3CCN(c4ccccn4)CC3)c21` it was 0.731 µM [rising, full curve, poor fit]; in that of `CN1CC(=O)N(C)c2nc(Br)n(C)c2C1=O`, 11.2 µM [falling, partial curve]. On the same count and under the same terms, then `CCOC(=O)N1CCN(c2nc(C)c3c(n2)CC(C)CC3=O)CC1` (stereo not given), with 5.62 µM [rising, full curve]; and `O=C(CSc1nnnn1-c1ccccc1)NC1CCCc2ccccc21` (stereo not given), with 32.6 µM [falling, partial curve, poor fit].

For `COc1ccccc1NC(=O)C/C(C)=N/NC(=O)C12CC3CC(CC(C3)C1)C2`, the half-maximal activity concentration (AC50) under setting [1] is 17.8 µM [falling, partial curve, poor fit]. As to `Cc1cccc(-c2noc(C(C)NC(=O)c3ccco3)n2)c1` (stereo not given), the concentration at half-maximal activity (AC50) under setting [1] is 31.6 µM [rising, partial curve, poor fit]. On the same count and under the same terms, in the case of `O=C(CSc1nnc(Cc2cccs2)n1-c1ccccc1)Nc1ccc2c(c1)OCCO2` it was 29.1 µM [falling, single point]; in that of `CC(c1ccccc1)N1C(=O)CC(Sc2ncccc2C(=O)O)C1=O` (stereo not given), 0.82 µM [rising, full curve, poor fit]. Still for that read-out and setting: in the case of `COc1ccc(-c2cc(C(=O)NC(C(=O)O)C(C)C)c(C)o2)cc1OC` (stereo not given) it was 10 µM [falling, partial curve]; in that of `COC(=O)c1ccccc1NC(=S)NC(=O)c1ccccc1C`, 8.91 µM [falling, partial curve, poor fit]. On the same count and under the same terms, then `O=C(CSc1nnc(-c2ccc(Br)cc2)n1C1CCCCC1)N1CCCC1`, with 0.82 µM [falling, full curve]; and `Cc1ccc(NC(=S)NCc2cccs2)cc1`, with 0.116 µM [falling, full curve, poor fit]; and `CCOc1ccc(N2Nc3n[nH]c(N)c3N2)cc1`, with 2.06 µM [rising, full curve]. Take `O=C(OCc1ccccc1)c1cccc(-c2nnn(Cc3ccccc3)n2)c1`: the AC50 under setting [1] is 25.9 µM [falling, single point]. Regarding `CCC(=O)Nc1ccc2oc(-c3cccnc3)nc2c1`, the AC50 under setting [1] was 22.4 µM [rising, partial curve, poor fit]. For `COc1ccc(C(=S)NCS(=O)(=O)c2ccc(C)cc2)cc1`, the AC50 runs as follows: under setting [1], 29.1 µM [falling, single point]; under setting [2], 29.1 µM [falling, single point]. As to `Nc1[nH]nc2ncc3cc4ccccc4nc3c12`, the AC50 under setting [1] was 17.8 µM [falling, single point]. As for `Cc1nc2sccc2c(=O)n1-c1cccc(Cl)c1`, the half-maximal activity concentration (AC50) under setting [1] is 35.5 µM [rising, partial curve, poor fit]. Same read-out and setting: in the case of `COc1ccc(-c2cc(C(=O)N3CCN(c4ccccc4O)CC3)c3ccccc3n2)cc1` it was 23.1 µM [falling, partial curve, poor fit]; in that of `COc1cc(NC(=O)CNc2cccc(S(=O)(=O)N3CCCC3)c2)cc(OC)c1`, 5.62 µM [falling, partial curve, poor fit]; in that of `O=C(NC1CC1)c1ccc(N2CCCCC2)c([N+](=O)[O-])c1`, 2 µM [rising, partial curve]. On to `CCOc1ccc(S(=O)(=O)Nc2ccc3oc(C)c(C(=O)OC(C)C)c3c2)cc1`, for which, under setting [1], the concentration at half-maximal activity (AC50) was 12.6 µM [rising, single point]. The same measure, in the same setting: in the case of `Cc1nnc(N/N=C/c2ccccc2F)n1N` it was 25.1 µM [falling, single point]; in that of `COc1ccc(NC(=O)CSc2ccc(-c3ccco3)nn2)c(OC)c1`, 7.94 µM [falling, partial curve]. With `COCCCN(C(C)=O)c1nc(-c2ccc(OC)cc2)cs1`, under setting [1], the half-maximal activity concentration (AC50) was 4.47 µM [rising, full curve, poor fit]. On the same count and under the same terms, then `O=C(CCCN1C(=O)/C(=C/c2cccs2)SC1=S)NNC(=O)c1ccncc1`, with 2.51 µM [falling, full curve, poor fit]; and `Cc1ccc(S(=O)(=O)Nc2c(NC3CCCCC3)c3ccccc3oc2=O)c(C)c1`, with 14.1 µM [falling, partial curve]. As for `O=C1C(Cl)=C(Nc2ccc3cn[nH]c3c2)C(=O)c2ccccc21`, the AC50 by setting is: under setting [1], 7.08 µM [falling, partial curve, poor fit]; under setting [2], 7.08 µM [rising, full curve, poor fit]. Take `O=C(/C=C\Nc1ccc2c(c1)OCO2)c1cccs1`: the concentration at half-maximal activity (AC50) under setting [1] was 14.1 µM [falling, partial curve, poor fit]. Regarding `COc1ccccc1-c1ccc(NC2CCCCC2)nn1`, the AC50 under setting [1] is 2.06 µM [rising, partial curve, poor fit]. Same read-out and setting: in the case of `CCC(CC)C(=O)c1c[nH]c(C(=O)NCc2ccccn2)c1` it was 15.8 µM [rising, partial curve, poor fit]. Same read-out and setting: in the case of `Cc1cccc(CN2C[C@]34C=C[C@@H](C[C@@H]3S2(=O)=O)O4)c1` it was 5.01 µM [rising, single point]. Still for that read-out and setting: then `Cc1ccc(NC(=O)c2nn(C34CC5CC(CC(C5)C3)C4)cc2[N+](=O)[O-])cc1`, with 5.62 µM [falling, partial curve]; and `CN(CC(=O)N1CCN(c2ccc(F)cc2)CC1)S(=O)(=O)c1ccc(F)cc1`, with 1.84 µM [rising, full curve, poor fit].

`CCOc1ccc(-c2c(=O)n(OCc3nc4ccccc4[nH]3)c3ccccc3[n+]2[O-])cc1`: the AC50 under setting [1] is 5.62 µM [rising, partial curve, poor fit]. Same read-out and setting: then `COC(=O)c1ccc(/C=N\NC(=O)c2ccc(C)cc2Cl)cc1`, with 6.31 µM [falling, partial curve, poor fit]; and `Cc1cc(N=NC(=O)c2ccccc2O)c2ccccc2c1O`, with 0.0891 µM [falling, full curve, poor fit]. The same measure, in the same setting: then `O=C(Nc1ccccc1Cl)c1ccccc1Cl`, with 0.562 µM [rising, full curve, poor fit].

In the case of `O=C(CSc1ncn[nH]1)Nc1ccc2c(c1)OCCO2`, the AC50 under setting [1] was 0.0058 µM [falling, full curve, poor fit]. Still for that read-out and setting: then `O=S(=O)(CCOc1ccccc1)N1CCOCC1`, with 14.6 µM [rising, partial curve, poor fit]; and `COc1ccccc1NC(=O)C/C(C)=N/NC(=O)COc1c(Br)cc(Br)cc1OC`, with 11.2 µM [falling, partial curve, poor fit]; and `COc1ccc(-c2ccoc2)cc1[C@H]1[C@H]2C=CC[C@@H](C)[C@@H]2C(=O)N1Cc1ccccc1`, with 0.398 µM [rising, full curve, poor fit].

`COC(=O)c1c(NC(=O)c2ccccc2C(=O)O)sc2c1CCC2`: the AC50 under setting [1] is 11.2 µM [falling, single point].

As for `O=C(CNC(=O)c1ccccc1)NCC(=O)OCC(=O)c1ccc(F)cc1`, under setting [1], the AC50 is 32.6 µM [rising, partial curve, poor fit].

For `CCN(C(=O)COC(=O)CNC(=O)c1sc2ccccc2c1Cl)C1CCCCC1`, under setting [1], the AC50 is 20.6 µM [rising, partial curve]. On the same count and under the same terms, then `Cc1ccc(NC(=O)c2cc(S(=O)(=O)N3CCc4ccccc43)cn2C)cc1`, with 5.01 µM [falling, partial curve, poor fit]; and `C/C(=N\NC(=O)c1ccccc1)c1ccccc1Br`, with 16.4 µM [falling, single point]; and `O=C(Nc1cccc(-c2nc3ccccc3c(=O)o2)c1)c1ccccc1`, with 22.4 µM [falling, single point]. The same measure, in the same setting: then `Cc1ccc(CNC(=O)Nc2cccs2)cc1`, with 0.58 µM [rising, partial curve, poor fit].

With `CCN(CC)S(=O)(=O)c1ccc(NC(=O)c2ccc(N3CCCC3=O)cc2)cc1`, the AC50 under setting [1] was 4.11 µM [rising, single point]. For `CCc1ccc(NC(=O)C2=CC(c3ccc(OC)c(OC)c3)=NS(=O)(=O)N2C)cc1`, the half-maximal activity concentration (AC50) under setting [1] is 35.5 µM [falling, single point]. As for `Cn1c(CC(=O)Nc2ccc(Cl)c(Cl)c2)nnc1SCC(=O)NCc1ccccc1`, the AC50 under setting [1] is 1.12 µM [falling, full curve, poor fit]. The same measure, in the same setting: in the case of `C[C@@H]1NC(=O)[C@H](CCCN=C(N)N)NC(=O)c2cc([N+](=O)[O-])cc(I)c2NCCC[C@@H](C(N)=O)NC1=O` it was 23.1 µM [rising, single point]; in that of `O=C(NCCC1CCCCN1S(=O)(=O)c1ccccc1)C(=O)Nc1ccccc1` (stereo not given), 6.51 µM [falling, full curve]. In the case of `CC(C)c1ccc(N2C(=O)[C@@H]3Cc4ccccc4CN3C2=O)cc1`, the half-maximal activity concentration (AC50) under setting [1] is 0.82 µM [rising, full curve].
